Where a name gives a salt, the structure may show the parent alone. At least one compound was matched to its structure with a doubt left.
Test system: PCP-induced NOR deficits in sub-chronic PCP treated rats
Experiment: Novel object recognition (NOR) test after subchronic PCP treatment
Assay type: in vivo, Female Long-Evans rats
Procedure: Female Long-Evans rats received vehicle or PCP (2 mg/kg, i.p.) twice daily for 7 days, followed by a 7-day washout period (n=6-9/group). Phencyclidine (PCP) which is known to induce schizophrenia-like symptoms in human normal subjects and to exacerbate symptoms in patients with schizophrenia was dissolved in distilled water and administered in a volume of 1 ml/kg.
On the test day, in the first set of experiments, lurasidone HCl (0.03 and 0.1 mg/kg; produced by Dainippon Sumitomo Pharma Co., Ltd.), clozapine (0.3 mg/kg), LY379268 (1 mg/kg; Tocris Bioscience) alone, or haloperidol (0.1 mg/kg), pimavanserin (3 mg/kg), lurasidone HCl (0.03 mg/kg), clozapine (0.1 mg/kg) in combination with LY379268 (1 mg/kg) were administered intraperitoneally in a volume of 1 ml/kg, 30 min before the novel object recognition (NOR) test. In the second set of experiments, LY404039 (1 mg/kg; produced by Dainippon Sumitomo Pharma Co., Ltd.) alone was orally administered in a volume of 4 ml/kg 60 min before the novel object recognition (NOR) test. For combination with lurasidone HCl, LY404039 (1 mg/kg, p.o.) and lurasidone HCl (0.03 mg/kg, i.p.) were administered 60 min and 30 min before the novel object recognition (NOR) test, respectively. […]

SMILES | Effect on PCP-induced NOR deficits (clozapine alone, acute) | Effect on PCP-induced NOR deficits (acute treatment with lurasidone HCl alone, i.p.)
CN1CCN(C2=Nc3cc(Cl)ccc3Nc3ccccc32)CC1 [Clozapine] | reversed the PCP-induced NOR deficits | 
O=C1[C@@H]2[C@H]3CC[C@H](C3)[C@@H]2C(=O)N1C[C@@H]1CCCC[C@H]1CN1CCN(c2nsc3ccccc23)CC1 [Lurasidone HCl] |  | reversed the PCP-induced NOR deficits

Source: patent publication US8735397B2, “Method for treating schizophrenia and related diseases” (Vanderbilt University, priority 2010, dated 2014)
